# Data from paper PMC10685607.
# Chains of the proteins cited; added tags and fusions are not shown.
# UniProt Q92963: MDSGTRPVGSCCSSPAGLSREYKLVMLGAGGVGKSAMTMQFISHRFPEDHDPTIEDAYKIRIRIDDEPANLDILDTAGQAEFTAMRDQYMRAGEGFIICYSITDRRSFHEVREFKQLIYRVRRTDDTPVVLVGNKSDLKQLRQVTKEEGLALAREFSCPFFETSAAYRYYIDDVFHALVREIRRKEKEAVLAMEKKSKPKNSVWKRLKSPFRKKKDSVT
# UniProt Q9UQE7: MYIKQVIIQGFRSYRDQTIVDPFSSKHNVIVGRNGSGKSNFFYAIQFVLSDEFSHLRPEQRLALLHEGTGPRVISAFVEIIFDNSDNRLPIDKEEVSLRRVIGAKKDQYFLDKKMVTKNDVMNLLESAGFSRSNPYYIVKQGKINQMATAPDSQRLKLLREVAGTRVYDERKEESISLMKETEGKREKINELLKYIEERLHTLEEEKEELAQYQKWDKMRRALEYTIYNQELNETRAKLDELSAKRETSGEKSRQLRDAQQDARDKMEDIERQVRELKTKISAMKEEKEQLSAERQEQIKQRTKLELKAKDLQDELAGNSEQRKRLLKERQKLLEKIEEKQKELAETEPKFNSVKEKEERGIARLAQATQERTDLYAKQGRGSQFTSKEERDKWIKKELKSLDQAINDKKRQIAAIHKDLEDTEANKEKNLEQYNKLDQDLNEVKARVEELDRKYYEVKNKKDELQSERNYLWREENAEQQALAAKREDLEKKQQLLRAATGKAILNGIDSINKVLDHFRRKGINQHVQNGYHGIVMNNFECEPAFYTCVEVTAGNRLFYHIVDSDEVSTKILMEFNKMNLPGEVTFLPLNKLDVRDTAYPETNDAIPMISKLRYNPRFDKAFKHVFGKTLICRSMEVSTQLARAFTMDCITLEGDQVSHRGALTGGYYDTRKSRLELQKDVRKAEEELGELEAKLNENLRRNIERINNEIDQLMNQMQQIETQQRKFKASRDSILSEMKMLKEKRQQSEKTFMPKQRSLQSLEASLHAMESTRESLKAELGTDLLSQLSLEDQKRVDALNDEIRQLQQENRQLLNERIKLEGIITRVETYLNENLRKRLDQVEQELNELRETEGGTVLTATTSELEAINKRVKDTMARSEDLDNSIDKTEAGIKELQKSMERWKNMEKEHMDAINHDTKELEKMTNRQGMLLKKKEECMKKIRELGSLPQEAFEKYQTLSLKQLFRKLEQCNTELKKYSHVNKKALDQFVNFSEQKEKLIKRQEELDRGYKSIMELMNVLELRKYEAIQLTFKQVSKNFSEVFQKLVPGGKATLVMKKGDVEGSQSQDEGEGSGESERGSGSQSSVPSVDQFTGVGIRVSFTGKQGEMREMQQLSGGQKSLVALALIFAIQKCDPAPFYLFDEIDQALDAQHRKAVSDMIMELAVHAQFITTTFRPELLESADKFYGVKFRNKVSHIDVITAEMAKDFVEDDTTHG
# Read-outs that look alike come from different tables or passages of the source. Results are given in words; binding and its absence hold for the method and conditions named. Binding seen in cells or lysates may run through a third protein. Some binding calls cover weakened binding; strength is not graded here.
# B1: PDS5 cohesin associated factor A (PDS5A), endogenous (protein, UniProt Q29RF7 1-1337)
# chain: MDFTAQPKPATALCGVVSADGKIAYPPGVKEITDKITTDEMIKRLKMVVKTFMDMDQDSEDEKQQYLPLALHLASEFFLRNPNKDVRLLVACCLADIFRIYAPEAPYTSHDKLKDIFLFITRQLKGLEDTKSPQFNRYFYLLENLAWVKSYNICFELEDCNEIFIQLFRTLFSVINNSHNKKVQMHMLDLMSSIIMEGDGVTQELLDSILINLIPAHKNLNKQSFDLAKVLLKRTVQTIEACIANFFNQVLVLGRSSVSDLSEHVFDLIQELFAIDPHLLLSVMPQLEFKLKSNDGEERLAVVRLLAKLFGSKDSDLATQNRPLWQCFLGRFNDIHVPVRLESVKFASHCLMNHPDLAKDLTEYLKVRSHDPEEAIRHDVIVTIITAAKRDLALVNDQLLGFVRERTLDKRWRVRKEAMMGLAQLYKKYCLHGEAGKEAAEKVSWIKDKLLHIYYQNSIDDKLLVEKIFAQYLVPHNLETEERMKCLYYLYASLDPNAVKALNEMWKCQNMLRSHVRELLDLHKQPTSEANCSAMFGKLMTIAKNLPDPGKAQDFVKKFNQVLGDDEKLRSQLELLISPTCSCKQADICVREIARKLANPKQPTNPFLEMVKFLLERIAPVHIDSEAISALVKLMNKSIEGTADDEEEGVSPDTAIRSGLELLKVLSFTHPTSFHSAETYESLLQCLRMEDDKVAEAAIQIFRNTGHKIETDLPQIRSTLIPILHQKAKRGTPHQAKQAVHCIHAIFTNKEVQLAQIFEPLSRSLNADVPEQLITPLVSLGHISMLAPDQFASPMKSVVANFIVKDLLMNDRSTGEKNGKLWSPDEEVSPEVLAKVQAIKLLVRWLLGMKNNQSKSANSTLRLLSAMLVSEGDLTEQKRISKSDMSRLRLAAGSAIMKLAQEPCYHEIITPEQFQLCALVINDECYQVRQIFAQKLHKALVKLLLPLEYMAIFALCAKDPVKERRAHARQCLLKNISIRREYIKQNPMATEKLLSLLPEYVVPYMIHLLAHDPDFTRSQDVDQLRDIKECLWFMLEVLMTKNENNSHAFMKKMAENIKLTRDAQSPDESKTNEKLYTVCDVALCVINSKSALCNADSPKDPVLPMKFFTQPEKDFCNDKSYISEETRVLLLTGKPKPAGVLGAVNKPLSATGRKPYVRSTGTETGSNINVNSELNPSTGNRSREQSSEAAETGVSENEENPVRIISVTPVKNIDPVKNKEINSDQATQGNISSDRGKKRTVTAAGAENIQQKTDEKVDESGPPAPSKPRRGRRPKSESQGNATKNDDLNKPINKGRKRAAVGQESPGGLEAGNAKAPKLQDLAKKAAPAERQIDLQR
# B2: PDS5 cohesin associated factor B (PDS5B), endogenous (protein, UniProt Q9NTI5 1-1447)
# chain: MAHSKTRTNDGKITYPPGVKEISDKISKEEMVRRLKMVVKTFMDMDQDSEEEKELYLNLALHLASDFFLKHPDKDVRLLVACCLADIFRIYAPEAPYTSPDKLKDIFMFITRQLKGLEDTKSPQFNRYFYLLENIAWVKSYNICFELEDSNEIFTQLYRTLFSVINNGHNQKVHMHMVDLMSSIICEGDTVSQELLDTVLVNLVPAHKNLNKQAYDLAKALLKRTAQAIEPYITNFFNQVLMLGKTSISDLSEHVFDLILELYNIDSHLLLSVLPQLEFKLKSNDNEERLQVVKLLAKMFGAKDSELASQNKPLWQCYLGRFNDIHVPIRLECVKFASHCLMNHPDLAKDLTEYLKVRSHDPEEAIRHDVIVSIVTAAKKDILLVNDHLLNFVRERTLDKRWRVRKEAMMGLAQIYKKYALQSAAGKDAAKQIAWIKDKLLHIYYQNSIDDRLLVERIFAQYMVPHNLETTERMKCLYYLYATLDLNAVKALNEMWKCQNLLRHQVKDLLDLIKQPKTDASVKAIFSKVMVITRNLPDPGKAQDFMKKFTQVLEDDEKIRKQLEVLVSPTCSCKQAEGCVREITKKLGNPKQPTNPFLEMIKFLLERIAPVHIDTESISALIKQVNKSIDGTADDEDEGVPTDQAIRAGLELLKVLSFTHPISFHSAETFESLLACLKMDDEKVAEAALQIFKNTGSKIEEDFPHIRSALLPVLHHKSKKGPPRQAKYAIHCIHAIFSSKETQFAQIFEPLHKSLDPSNLEHLITPLVTIGHIALLAPDQFAAPLKSLVATFIVKDLLMNDRLPGKKTTKLWVPDEEVSPETMVKIQAIKMMVRWLLGMKNNHSKSGTSTLRLLTTILHSDGDLTEQGKISKPDMSRLRLAAGSAIVKLAQEPCYHEIITLEQYQLCALAINDECYQVRQVFAQKLHKGLSRLRLPLEYMAICALCAKDPVKERRAHARQCLVKNINVRREYLKQHAAVSEKLLSLLPEYVVPYTIHLLAHDPDYVKVQDIEQLKDVKECLWFVLEILMAKNENNSHAFIRKMVENIKQTKDAQGPDDAKMNEKLYTVCDVAMNIIMSKSTTYSLESPKDPVLPARFFTQPDKNFSNTKNYLPPEMKSFFTPGKPKTTNVLGAVNKPLSSAGKQSQTKSSRMETVSNASSSSNPSSPGRIKGRLDSSEMDHSENEDYTMSSPLPGKKSDKRDDSDLVRSELEKPRGRKKTPVTEQEEKLGMDDLTKLVQEQKPKGSQRSRKRGHTASESDEQQWPEEKRLKEDILENEDEQNSPPKKGKRGRPPKPLGGGTPKEEPTMKTSKKGSKKKSGPPAPEEEEEEERQSGNTEQKSKSKQHRVSRRAQQRAESPESSAIESTQSTPQKGRGRPSKTPSPSQPKKNVRVGRSKQAATKENDSSEEVDVFQGSSPVDDIPQEETEEEEVSTVNVRRRSAKRERR
# Legend:
# [1] = target: Myc-RIT1 wild-type, expressed in 293T cells (human) (UniProt Q92963); experiment: co-IP; lysates (RIPA buffer) of 293T cells co-transfected with Myc-RIT1 (WT, ΔN or ΔC) and Flag-SMC3 plasmids; anti-Myc or anti-Flag antibody, protein A/G-agarose, western blot
# [2] = target: RIT1 in HCC cells with RIT1 overexpression (human) (UniProt Q92963); experiment: co-IP; lysates (RIPA buffer) of Huh7, HCC-LY10 or Hep3B cells with RIT1 overexpression, asynchronous or enriched in mitosis; protein A/G-agarose, western blot
# [3] = target: Myc-tagged RIT1 (Ras-like-without-CAAX-1), expressed in HCC cells (human) (UniProt Q92963); experiment: co-IP; lysates (RIPA buffer) of HCC-LY10, Huh7 and Hep3B cells transfected with Myc-RIT1 plasmid; anti-Myc or anti-SMC3 antibody, 4 °C 16 h, protein A/G-agarose, western blot
# [4] = target: RIT1 in HCC-LY10 cells with PDS5 knockdown or control (human) (UniProt Q92963); experiment: co-IP; lysates of HCC-LY10 cells with PDS5 knockdown or control; western blot
# [5] = target: RIT1 in HCC cells with RIT1 overexpression (human) (UniProt Q92963); experiment: co-IP; lysates (RIPA buffer) of Huh7, HCC-LY10 or Hep3B cells with RIT1 overexpression, asynchronous or enriched in mitosis; protein A/G-agarose, western blot; remark: listed apart in the source
molecule,measurement,setting,value
Flag-SMC3 (from UniProt Q9UQE7 1-1217),binding,[1],binds
"structural maintenance of chromosome 3 (SMC3), endogenous (from UniProt Q9UQE7 1-1217)",binding,[2],binds
same,binding,[3],binds
same,binding,[4],binds
B1,binding,[5],binds
B2,binding,[5],binds
